Experimental data: article doi:10.1101/049148
Results are given in words; binding and its absence hold for the method and conditions named. Binding calls can cover weak binding; strength is not graded here. For some assays here: Sequences can lack the tags named with a protein. For some assays here: In cells and extracts the contact can be indirect.

B1: recombinant heh2(1-308)-His6 (domain or fragment, UniProt Q03281 1-308)
chain: MDHRNLDPKTLKVSQLRRVLVENDVAFPANARKPVLVKLFEEKVRQRLQSSPEASKVRTSIQKVVKSGAKNADRKKTLKSKKLESSSSESKTVKDENVETNKRKREQISTDNEAKMQIQEEKSPKKKRKKRSSKANKPPESPPQSKSDGKATSADLTSELETVEELHKKDSSDDKPRVKELPKPELPNLKVSNEFLAQLNKELASAATENYDHSIKSTDLSSIRIETEEPVGPSTGAETRNESEVMENINLEVQPEVKEAKEELTKISETFDNQDEEDTSRLSSKKNIRSPKGRTRHFIANKTKRGID
B2: Snf7-VC (protein, UniProt P39929 1-240)
chain: MWSSLFGWTSSNAKNKESPTKAIVRLREHINLLSKKQSHLRTQITNQENEARIFLTKGNKVMAKNALKKKKTIEQLLSKVEGTMESMEQQLFSIESANLNLETMRAMQEGAKAMKTIHSGLDIDKVDETMDEIREQVELGDEISDAISRPLITGANEVDEDELDEELDMLAQENANQETSKIVNNNVNAAPISENKVSLPSVPSNKIKQSENSVKDGEEEEDEEDEDEKALRELQAEMGL
B3: Vps4-VC (enzyme, UniProt P52917 1-437)
chain: MSTGDFLTKGIELVQKAIDLDTATQYEEAYTAYYNGLDYLMLALKYEKNPKSKDLIRAKFTEYLNRAEQLKKHLESEEANAAKKSPSAGSGSNGGNKKISQEEGEDNGGEDNKKLRGALSSAILSEKPNVKWEDVAGLEGAKEALKEAVILPVKFPHLFKGNRKPTSGILLYGPPGTGKSYLAKAVATEANSTFFSVSSSDLVSKWMGESEKLVKQLFAMARENKPSIIFIDEVDALTGTRGEGESEASRRIKTELLVQMNGVGNDSQGVLVLGATNIPWQLDSAIRRRFERRIYIPLPDLAARTTMFEINVGDTPCVLTKEDYRTLGAMTEGYSGSDIAVVVKDALMQPIRKIQSATHFKDVSTEDDETRKLTPCSPGDDGAIEMSWTDIEADELKEPDLTIKDFLKAIKSTRPTVNEDDLLKQEQFTRDFGQEGN
B4: Bro1-VC (protein, UniProt P48582 1-844)
chain: MKPYLFDLKLKDTEKLDWKKGLSSYLKKSYGSSQWRTFYDEKATSELDHLRNNANGELAPSSLSEQNLKYYSFLEHLYFRLGSKGSRLKMDFTWYDAEYSSAQKGLKYTQHTLAFEKSCTLFNIAVIFTQIARENINEDYKNSIANLTKAFSCFEYLSENFLNSPSVDLQSENTRFLANICHAEAQELFVLKLLNDQISSKQYTLISKLSRATCNLFQKCHDFMKEIDDDVAIYGEPKWKTTVTCKLHFYKSLSAYYHGLHLEEENRVGEAIAFLDFSMQQLISSLPFKTWLVEFIDFDGFKETLEKKQKELIKDNDFIYHESVPAVVQVDSIKALDAIKSPTWEKILEPYMQDVANKCDSLYRGIIPLDVYEKESIYSEEKATLLRKQVEETETANLEYSSFIEFTNLPRLLSDLEKQFSDGNIFSNTDTQGQLMRDQIQTWCKFIQTNEFRDIEEQMNKIVFKRKQILEILSALPNDQKENVTKLKSSLVAASNSDEKLFACVKPHIVEINLLNDNGKIWKKFDEFNRNTPPQPSLLDIDDTKNDKILELLKQVKGHAEDLRTLKEERSRNLSELRDEINNDDITKLLIINKGKSDVELKDLFEVELEKFEPLSTRIEATIYKQSSMIDDIKAKLDEIFHLSNFKDKSSGEEKFLEDRKNFFDKLQEAVKSFSIFASDLPKGIEFYDSLFNMSRDLAERVRVAKQTEDSTANSPAPPLPPLDSKASVVGGPPLLPQKSAAFQSLSRQGLNLGDQFQNLKISAGSDLPQGPGIPPRTYEASPYAATPTMAAPPVPPKQSQEDMYDLRRRKAVENEERELQENPTSFYNRPSVFDENMYSKYSS
B5: Vps20-VC (protein, UniProt Q04272 1-221)
chain: MGQKSSKVHITKTDRAILEVKRSKDEIHKFTRRTDNLILVEKSQLKDLIRKNPENYKSNMKVRFLLKRIHYQEHLLQQASDQLINLENMVSTLEFKMVEKQFINGLKNGNEILKKLNKEFSNVDELMDDVQDQIAYQNEINETLSRSLVGTSNYEDDLDKELDALESELNPEKMNNAKVANMPSTEGLPSLPQGEQTEQKEREEFATEERSDTKEPLALLS

Columns and labels:
[1] = target: GST-chm7-CΔC (budding yeast (W303 chromosomal DNA)); assay: pull-down
[2] = target: Chm7-VN (budding yeast (endogenously tagged)); assay: split reporter

Row | Binder | binding [1] | binding [2]
1 | B1 | binds | 
2 | B2 |  | binds
3 | B3 |  | binds weakly
4 | B4 |  | no binding
5 | B5 |  | no binding
